Measurements taken from article PMC3378586.
No constants are given. Whether binding was seen depends on the method and setting. Binding seen in cells or lysates may run through a third protein. Some binding calls cover weakened binding; strength is not graded here. Sequences can lack the tags named with a protein.

Key:
[1] = target: T1, Duf1-GFP (DUB-associated factor 1, Yol087c), tagged at the chromosomal locus (S. cerevisiae) (UniProt Q99247); assay: co-IP; immunoprecipitation of Duf1-GFP in native conditions with anti-GFP antibody from yeast lysates; blot with anti-HA; chromosome-encoded Ubp9-HA or Ubp13-HA, and Δubp9 Δubp13 cells with plasmid-encoded Ubp9 or Ubp13; lysis buffer 50 mM Hepes-KOH pH 7.5, 150 mM NaCl, 0.1% NP40, 10% glycerol, 1 mM EDTA; 1 h at 4°C
T1 sequence: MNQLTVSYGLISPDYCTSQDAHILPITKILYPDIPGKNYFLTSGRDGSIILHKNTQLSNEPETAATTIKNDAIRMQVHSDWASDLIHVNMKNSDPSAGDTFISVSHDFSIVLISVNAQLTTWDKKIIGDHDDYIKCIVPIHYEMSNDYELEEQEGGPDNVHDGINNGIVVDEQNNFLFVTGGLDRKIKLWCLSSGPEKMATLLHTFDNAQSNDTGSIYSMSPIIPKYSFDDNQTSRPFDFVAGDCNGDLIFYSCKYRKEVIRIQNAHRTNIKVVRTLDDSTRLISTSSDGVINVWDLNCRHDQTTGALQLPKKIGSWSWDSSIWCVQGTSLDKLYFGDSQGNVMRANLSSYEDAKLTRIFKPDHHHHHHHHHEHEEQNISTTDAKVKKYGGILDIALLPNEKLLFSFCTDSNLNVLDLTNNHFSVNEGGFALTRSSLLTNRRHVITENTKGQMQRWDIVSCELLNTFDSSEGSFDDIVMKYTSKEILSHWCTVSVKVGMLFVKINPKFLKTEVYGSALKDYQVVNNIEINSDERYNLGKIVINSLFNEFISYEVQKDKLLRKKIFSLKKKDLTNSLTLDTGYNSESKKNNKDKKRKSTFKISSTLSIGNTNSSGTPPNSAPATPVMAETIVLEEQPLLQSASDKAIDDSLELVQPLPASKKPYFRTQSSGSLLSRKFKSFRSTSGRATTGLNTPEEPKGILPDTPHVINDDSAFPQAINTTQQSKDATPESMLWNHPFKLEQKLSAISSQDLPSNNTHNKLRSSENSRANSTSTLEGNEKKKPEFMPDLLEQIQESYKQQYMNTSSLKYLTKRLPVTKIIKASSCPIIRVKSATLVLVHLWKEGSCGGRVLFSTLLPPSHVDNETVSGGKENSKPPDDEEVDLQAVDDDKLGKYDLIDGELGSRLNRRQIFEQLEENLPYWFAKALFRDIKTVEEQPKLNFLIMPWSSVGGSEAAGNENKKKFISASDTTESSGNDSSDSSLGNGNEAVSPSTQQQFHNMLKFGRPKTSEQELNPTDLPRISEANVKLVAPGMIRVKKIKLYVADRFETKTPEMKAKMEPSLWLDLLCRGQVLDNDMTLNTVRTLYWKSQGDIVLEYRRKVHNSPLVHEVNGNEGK

[2] = target: T2, GST-tagged Ubp13 (S. cerevisiae) (UniProt P38187); assay: pull-down; GST, GST-Ubp9 or GST-Ubp13 on glutathione-Sepharose beads incubated with a lysate of yeast cells producing Duf1-HA; 50 mM Tris pH 7.4, 300 mM NaCl, 10 mM MgCl2, 0.1% Triton X-100, 1 mM DTT, 10% glycerol; 1 h at 4°C; eight washes; blot with anti-HA; only the target purified
T2 sequence: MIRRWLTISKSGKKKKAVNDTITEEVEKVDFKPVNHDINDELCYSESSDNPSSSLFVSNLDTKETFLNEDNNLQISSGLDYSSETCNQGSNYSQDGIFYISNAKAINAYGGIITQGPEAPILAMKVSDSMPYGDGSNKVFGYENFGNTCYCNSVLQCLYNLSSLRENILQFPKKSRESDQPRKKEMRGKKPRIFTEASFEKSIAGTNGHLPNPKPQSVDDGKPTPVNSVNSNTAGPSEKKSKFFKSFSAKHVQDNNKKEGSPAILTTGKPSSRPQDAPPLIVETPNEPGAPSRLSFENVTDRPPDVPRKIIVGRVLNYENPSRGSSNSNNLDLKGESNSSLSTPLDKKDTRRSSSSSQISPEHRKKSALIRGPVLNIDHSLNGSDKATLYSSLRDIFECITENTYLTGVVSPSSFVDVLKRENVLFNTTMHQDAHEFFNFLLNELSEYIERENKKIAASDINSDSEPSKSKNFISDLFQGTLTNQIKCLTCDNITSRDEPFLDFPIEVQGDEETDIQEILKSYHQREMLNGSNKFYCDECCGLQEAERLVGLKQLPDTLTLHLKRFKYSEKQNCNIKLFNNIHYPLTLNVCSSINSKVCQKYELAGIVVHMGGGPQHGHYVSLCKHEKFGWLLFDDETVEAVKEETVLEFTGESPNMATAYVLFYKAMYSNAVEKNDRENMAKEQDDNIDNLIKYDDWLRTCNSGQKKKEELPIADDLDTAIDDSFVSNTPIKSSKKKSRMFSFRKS

[3] = target: T3, GST-tagged Ubp9 (S. cerevisiae) (UniProt P39967); assay: as above
T3 sequence: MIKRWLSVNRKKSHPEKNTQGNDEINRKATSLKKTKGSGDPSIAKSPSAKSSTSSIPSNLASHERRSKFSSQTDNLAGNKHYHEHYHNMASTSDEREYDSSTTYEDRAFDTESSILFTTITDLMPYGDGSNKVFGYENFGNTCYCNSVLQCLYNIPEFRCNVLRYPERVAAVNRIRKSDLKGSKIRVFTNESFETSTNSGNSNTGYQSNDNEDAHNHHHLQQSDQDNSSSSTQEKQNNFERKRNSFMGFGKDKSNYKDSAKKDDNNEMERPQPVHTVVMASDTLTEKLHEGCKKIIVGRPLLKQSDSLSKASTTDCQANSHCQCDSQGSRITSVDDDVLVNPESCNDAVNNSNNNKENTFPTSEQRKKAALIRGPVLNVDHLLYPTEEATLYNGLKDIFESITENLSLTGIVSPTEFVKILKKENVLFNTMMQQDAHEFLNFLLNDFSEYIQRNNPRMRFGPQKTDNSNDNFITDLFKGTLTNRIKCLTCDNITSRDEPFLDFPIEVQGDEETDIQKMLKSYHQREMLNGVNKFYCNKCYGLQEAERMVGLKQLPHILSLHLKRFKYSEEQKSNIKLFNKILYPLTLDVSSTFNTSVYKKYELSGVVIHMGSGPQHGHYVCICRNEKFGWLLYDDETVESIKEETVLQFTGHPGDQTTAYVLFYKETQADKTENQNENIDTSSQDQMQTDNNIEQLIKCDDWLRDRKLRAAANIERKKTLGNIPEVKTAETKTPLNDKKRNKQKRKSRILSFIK

[4] = target: T2, GST-tagged Ubp13 (S. cerevisiae); assay: pull-down; GST, GST-Ubp9 or GST-Ubp13 on glutathione-Sepharose beads incubated with a bacterial lysate of cells expressing 6His-Duf1; same buffer as for the yeast lysate; 1 h at 4°C; blot with anti-His; only the target purified
[5] = target: T3, GST-tagged Ubp9 (S. cerevisiae); assay: as above

B1: plasmid-encoded Ubp13-3HA (pFL38-UBP13-3HA) (enzyme, UniProt P38187 1-747)
chain: T2 sequence
binding [1]: binds

B2: Duf1-HA, chromosome-encoded (protein, UniProt Q99247 1-1116)
chain: T1 sequence
binding [2]: binds
binding [3]: binds

B3: 6His-Duf1 produced in bacteria (protein, UniProt Q99247 1-1116)
chain: T1 sequence
binding [4]: binds
binding [5]: binds
